Primary screen of a compound library

Sequences of proteins named here, by UniProt entry; tags and fusion partners are left off.
UniProt E9BF75, entry or part of it: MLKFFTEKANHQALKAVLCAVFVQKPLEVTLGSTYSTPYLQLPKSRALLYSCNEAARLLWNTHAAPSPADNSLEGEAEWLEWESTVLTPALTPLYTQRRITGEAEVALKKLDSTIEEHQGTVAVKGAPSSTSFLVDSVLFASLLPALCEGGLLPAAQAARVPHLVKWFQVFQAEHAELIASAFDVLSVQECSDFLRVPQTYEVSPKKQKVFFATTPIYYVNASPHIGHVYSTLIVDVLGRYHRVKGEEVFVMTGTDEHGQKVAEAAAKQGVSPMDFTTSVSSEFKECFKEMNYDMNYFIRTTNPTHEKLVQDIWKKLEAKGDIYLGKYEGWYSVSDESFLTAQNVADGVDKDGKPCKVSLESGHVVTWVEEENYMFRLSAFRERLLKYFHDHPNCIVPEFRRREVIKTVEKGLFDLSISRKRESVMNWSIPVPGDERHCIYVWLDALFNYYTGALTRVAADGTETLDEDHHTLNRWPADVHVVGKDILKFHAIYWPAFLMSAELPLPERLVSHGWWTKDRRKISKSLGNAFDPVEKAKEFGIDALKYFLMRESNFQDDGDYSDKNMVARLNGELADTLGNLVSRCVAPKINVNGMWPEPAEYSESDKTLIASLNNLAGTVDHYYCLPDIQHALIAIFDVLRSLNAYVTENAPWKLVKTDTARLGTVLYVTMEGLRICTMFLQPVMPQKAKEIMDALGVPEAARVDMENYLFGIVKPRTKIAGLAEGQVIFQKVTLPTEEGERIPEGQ

LdMetRS: 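Primary screen of methionyl-tRNA synthetase; the read-out is not stated. Target: Methionyl-tRNA synthetase (putative), Leishmania donovani (UniProt E9BF75). The test concentration is not given. Values are per cent inhibition. Of about 68,000 compounds tested this way, about 24 (0.035%) reached 50% or more in at least one test.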
Mtb heat-shock: 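Assay on Mycobacterium tuberculosis, filed only as a heat shock assay from Cornell; the read-out is not stated. The concentration is filed as 10 mM, unlikely as a test dose, so the dose is not known. Higher reads as stronger inhibition (inferred: compounds with an IC50 in retests scored well above the rest). Of about 69,000 compounds tested this way, about 930 (1.4%) reached 50% or more in at least one test.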

Results are percentages, as filed. How 0% and 100% were set is not recorded. Most values in the screen are low, and negative values occur. This is an unselected part of the compounds tested. A dash means the value is not listed here; it may have been measured.

compound,LdMetRS,Mtb heat-shock
CCc1ncc(C(=O)N(C)CC2Cc3ccccc3O2)cn1 (configuration not stated),9.622,-7.208
CC(C)N1CCO[C@H]2CN(Cc3cc[nH]n3)C[C@H]21,12.32,-
CN(C)CCN1C2(CCN(Cc3nccs3)C2)c2ccccc2S1(=O)=O (configuration not stated),3.98,-
CCN(CC(=O)NC(C)C)C(=O)C(C)(C)c1ccc2c(c1)OCCO2,14.44,18.44
CCC(=O)N1CCC2(CC1)CN(CCO)Cc1ccccc12.O=C(O)C(F)(F)F,-,-19.17
Cc1ccc2nc(CNCCCOc3ccccc3)cc(O)c2c1,20.36,7.245
CC(=O)c1ccc(C(=O)N2C[C@@H](CN3CCCC3)[C@@H](CO)C2)cc1,10.06,-34.05
[H][C@@]12CNC[C@]1([H])[C@H]2C(=O)N1CCC(Sc2ccccc2C)CC1,-,-14.47
CC(C)c1nc(CN2CCCC2Cn2cccn2)no1 (configuration not stated),20.23,-4.119
N#Cc1cccnc1N1CCC2(CCCN(C3CCOCC3)C2=O)C1 (configuration not stated),8.5,14.12
CC(c1ccon1)N(C)C(=O)C1CCN(C(=O)C2CC2)CC1 (configuration not stated),20.14,5.026
N#Cc1cccc(C(=O)N2C[C@H](CO)C[C@H](CN3CCCC3)C2)c1,9.14,7.307
Cc1cc(CN2C[C@H]3CCC[C@@]3(COCc3csc(C)n3)C2)no1,13.87,-
CCN(c1ccc(C(=O)NCCCN2CCOCC2)cc1)S(=O)(=O)CC,2.113,-7.262
CS(=O)(=O)N1CC[C@]2(O)CCN(CCCC(=O)c3ccccc3)C[C@@H]2C1,16.51,-
Cc1ccc(C(=O)N2CCC3(CC2)CC(NC(=O)C(C)C)CO3)cc1 (configuration not stated),7.778,-2.691
O=C(CCc1cccs1)N1CCCCC1Cn1cccn1 (configuration not stated),11.81,-5.706
CN(C)Cc1cc(C2CCCCN2S(=O)(=O)c2cccc(Cl)c2)nn1C (configuration not stated),17.72,-
CC(C)c1nnc2n1CCN(C(=O)c1ccc(OCC(N)=O)cc1)C2,19.44,-7.502
CC1CCc2nc(O)c(C(=O)NCc3ccccc3F)cc2C1 (configuration not stated),3.896,-10.82
Cc1noc(C)c1CN1CCn2c(CN3CCN(C)CC3)cnc2C1,6.283,-
Cc1noc(C)c1CNc1ccc2nc(C3CC3)sc2c1,13.77,11.22
COC(=O)CC(c1ccc(OC)c(O)c1)c1oc(C)cc(=O)c1O (configuration not stated),8.908,8.474
COCCN1CCN(Cc2ccco2)Cc2ccc(C)nc21,12.8,-
CC(C)CC(=O)N1CC[C@@H]2[C@H](CC1)N(S(C)(=O)=O)CCS2(=O)=O,16.19,-
CCc1cnc(NCC(c2cccnc2)N2CCOCC2)nc1 (configuration not stated),9.639,19.78
O=C(CC1CC1)N[C@@H]1CN(Cc2ccoc2)C[C@@H]2CCCO[C@@H]21,-0.7407,-
O=C(c1cc2c(s1)CCN2C(=O)C1CC1)N1CCCC1,16.06,11.2
[H][C@@]12CCN(Cc3ccccn3)C[C@@]1([H])O[C@H](C)C2,-,-28.91
COc1cc2c(cc1CNC(=O)C(C)n1ccnc1C(C)C)OCCO2 (configuration not stated),7.035,-12.81
CCCn1cnnc1CNC(=O)CC1C(=O)NCCN1CC(C)(C)C (configuration not stated),20.52,8.139
c1ccc(CC2CCN(Cc3ccnc(-c4cccnc4)n3)CC2)cc1,16.1,-
CC(C)n1c(=O)c2ccccc2n(CCN(C)C)c1=O,12.3,-
[H][C@]12CC[C@@]3(N=C(C)N(CC4CC4)C3=O)[C@@]1([H])CN(S(=O)(=O)CC(C)C)C2,-,-13.2
Cc1noc(C)c1CN(C)C(=O)c1ccc(O)nc1,14.29,-6.611
Cc1cccc(C(=O)NCc2ccccc2)n1,15.1,16.38
CC(C)CCN(C)Cc1nc2c(cnn2C)c(=O)[nH]1,15.21,10.45
CCc1nccn1C1CCCN(C(=O)c2cnn3cccnc23)C1 (configuration not stated),4.601,-8.864
O=C(CNc1ccc(OC2CCOC2)cc1)NCc1cccs1 (configuration not stated),1.238,-2.305
CNc1ncc(C(=O)N2CCC(CCc3ccccc3)CC2)cn1,0,-0.6908
O=S(=O)(NC1=NCN(CCc2cccs2)CN1)c1ccc(Cl)cc1,16.06,5.476
COc1cc(CN2CCC(COCc3ccccc3)CC2)cc(OC)c1,10.45,-10.04

Source: ChEMBL document CHEMBL3988442, “University of Dundee, Small-Polar-MMV Screening Library” (2021).